# Test results reported in PubChem BioAssay AID588463 (National Center for Advancing Translational Sciences (NCATS), 2011).
# Screen size: about 1,200 compounds; about 15 (1%) were called active. Not shown: some 7% with an inconclusive outcome. Calls come from the whole dose curve; as a rule, active = well fitted activation curve with a large enough effect; inconclusive = small, poorly fitted or top-dose-only effect; inactive = flat fitted curve, though single readings scatter. The list shows a part of the results.
# Molecular target: Beta-2 adrenergic receptor (Homo sapiens) (UniProt P07550)
# Test: qHTS assay of beta-arrestin-biased ligands of beta2-adrenergic receptor: Hit Validation;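 note: plate controls were DMSO for no effect and maximal isoproterenol or metaproterenol response for full effect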
# Conditions: cell-based beta-arrestin recruitment to beta2AR; Potency: activation; series mostly up to 46.1 µM; activation: at the top concentration
# Description: The concept of biased agonism is an emerging concept of molecular pharmacology which proposes that seven transmembrane receptors (7TMRs) or G protein-coupled receptors (GPCRs), exist in multiple signaling conformations and complexes and that ligands (either agonists or antagonists) can induce signaling biased responses for distinct signal transduction cascades.
# Furthermore, accumulating evidence over the last decade has drawn attention to a novel function of beta-arrestins as signal transducers that scaffold various signaling molecules upon activation of 7TMRs. […] This beta-arrestin-biased signaling presumably leads to distinct physiological outcomes from those by G protein activation.
# Additionally, the active receptor conformations which […] on this beta-arrestin signaling are likely different from those activating G protein signaling
# The goal of this screening project will be to discover and optimize novel beta-arrestin-biased ligands for beta2-AR signaling. A luminescent cell-based assay for beta2-AR-mediated agonism, known as the Tango assay, has been validated in which ligand binding of a recombinant beta2-AR and subsequent recruitment of a recombinant beta-arrestin lead to the release of the transcriptional activator tTA, which upregulates transcription of a tTA-responsive luciferase gene.
# NIH Molecular Libraries Probe Production Network [MLPCN]
# NIH Chemical Genomics Center [NCGC]
# PI: Bryan Roth (UNC) and Bob Lefkowitz (Duke)
# NCGC Assay Protocol Summary:
# Tango cells were dispensed into white, solid, tissue-culture-treated 1536-well plates at 1500 cells/well in DMEM, containing 1% fetal bovine serum (FBS). Then, 23 nL of compounds or DMSO were delivered to each well using a pin tool. Plates were incubated at 37 degrees C, 5% CO2 for 18 hr. Then 2.5 uL luminescent substrate mix (in-house prepared: 150 mM Tris-Cl, pH 7.6, 3 mM MgCl2, 1% Triton X-100, 5 mM DTT, 0.5 mM CoA, 0.15 mM ATP, 0.44 mM D-luciferin, final concentrations) was added to each well. Plates were then incubated for 15 minutes at room temperature, and subsequently measured on a ViewLux plate reader for luminescent signal using a clear filter with a 10 second exposure and 2x binning. The %Activity was determined from the corrected luminescence values.
# Concentration-response curves were fitted to the signals arising from the resulting luminescence. The concentration-effect curves were then classified based on curve quality (r2), response magnitude and degree of measured activity, and compounds were subsequently categorized based on their curve class.
# Keywords: biased agonism, beta2-AR, beta-arrestin, GPCR, 7TMR, Tango, luminescence, MLSMR, MLPCN, NIH Roadmap, qHTS, NCGC
row,Compound,activation
1,Cc1cc(N2Cc3ccccc3C2)ccc1C=O,inactive: -1.41%
2,CCCCC(=O)N1CCCC(c2nc(-c3cccc(OC)c3)no2)C1 (centres undefined),inactive: -1.86%
3,S=c1ccc2ccccc2[nH]1,inactive: -2.65%
4,O=C1c2cccc3c([N+](=O)[O-])ccc(c23)C(=O)N1c1ccccn1,inactive: -3.16%
5,C[C@H](NC(=O)c1ccccc1)C(=O)OCC(=O)Nc1ccc2c(c1)OCO2,inactive: -2.24%
6,CCOC(=O)C1CCN(C(=O)c2ccccc2NS(=O)(=O)c2ccc(F)c(F)c2)CC1,inactive: -3.57%
7,CNC(=S)N/N=C/c1ccc(N2CCOCC2)s1,inactive: -2.87%
8,CC(C)Cn1c(Cc2ccccc2)n[nH]c1=S,inactive: -4.23%
9,COc1ccc(NC(=O)Nc2sc(=S)n(C)c2C)cc1,inactive: -2.08%
10,O=C(CSc1nccn1Cc1ccc(F)cc1)NC1CCCC1,inactive: -2.69%
11,COC(=O)c1ccc(C(=O)OC)c(NC(=O)CSc2cccc[n+]2[O-])c1,inactive: -1.21%
12,Cc1ccc(N/C=C/C(=O)c2ccccc2)cc1C,inactive: -1.95%
13,O=C(Oc1c(CN2CCOCC2)cc(Cl)c2cccnc12)c1ccccc1,inactive: 2.56%
14,COc1ccc(CCn2c(N)c(C(=O)NCc3ccco3)c3nc4ccccc4nc32)cc1,inactive: -2.04%
15,O=C(NC(=S)Nc1cccnc1Cl)c1ccc(Cl)cc1,inactive: -2.22%
16,COc1ccc(NC(=S)Nc2ccccn2)c(OC)c1,inactive: -1.86%
17,CCCNC(=O)Cn1cnc2sc(C(=O)Nc3ccc4c(c3)OCO4)c(C)c2c1=O,inactive: -0.332%
18,CCN1C(=O)C(CC(=O)Nc2ccc(OC)cc2)N(CCN2CCOCC2)C1=S (centres undefined),inactive: -0.784%
19,COc1ccc(C2C(C#N)=C(N)Oc3cc(N)ccc32)cc1OC (centres undefined),inactive: -1.87%
20,Cc1cc(C)nc(S/C=C/C(=O)c2ccccc2F)n1,inactive: -2.31%

row,Compound,activation
1,COc1ccc(Nc2cc(Nc3cccc(OC)c3)ncn2)cc1,inactive: -2.11%
2,CN(C)/C=N/S(=O)(=O)c1ccc(Cl)c(Cl)c1,inactive: -2.48%
3,COCCNC(=S)NN=C1CCCCC1,inactive: -1.74%
4,CC1CCN(c2c(NCc3ccc(C(=O)NCCc4ccc(Cl)cc4)cc3)c(=O)c2=O)CC1,inactive: -2.29%
5,CCN1CCN(C(=S)NC(=O)c2cccc(Br)c2)CC1,inactive: -2.87%
6,N=C1SCC(=O)N1c1ncc(Cc2ccccc2Cl)s1,inactive: -2.74%
7,Cc1ccc(NC(=O)CSc2cccc3cccnc23)c(C)c1,inactive: -3.6%
8,O=[N+]([O-])c1ccc(Sc2cccc3cccnc23)c([N+](=O)[O-])c1,inactive: -2.15%
9,NC(=S)Nc1nc2ccccc2s1,inactive: -1.8%
10,CCOc1ccc(NC(=S)NC(=O)c2ccco2)cc1,inactive: -0.636%
11,CCCNC(=O)COc1ccc2c(=O)c(Oc3ccccc3F)coc2c1,inactive: -3.11%
12,Oc1ccc(N=Cc2ccc(-c3cccs3)s2)cc1,inactive: -4.12%
13,Cc1ccc(-c2csc3nc[nH]c(=S)c23)cc1,inactive: -2.6%
14,CCOC(=O)c1c(C)[nH]c(N=Nc2ccc(C)cc2C)c1C,inactive: -10.2%
15,O=C1C(Cc2ccc(Br)cc2)SC(=Nc2ccccc2)N1c1ccccc1 (centres undefined),inactive: -1.47%
16,C=CC[n+]1c(-c2ccc(OC)c(OC)c2)csc1NNC(=O)Nc1ccccc1,inactive: -3.45%
17,Cc1ccc(/C(N)=N/OC(=O)c2ccc(Cl)cc2Cl)cc1,inactive: -2.63%
18,NNC(=S)NCc1ccco1,inactive: -2.62%
19,CC(=O)CC1OC(=O)C(Br)=C1NCc1ccccc1 (centres undefined),inactive: -1.18%
20,COc1ccc(C(=O)Nc2ccc(OCc3ccccc3)cc2)cc1[N+](=O)[O-],inactive: -1.39%

# Copied from the list.
# Oc1ccc(N=Cc2ccc(-c3cccs3)s2)cc1 – activation: inactive: -4.12%
# COCCNC(=S)NN=C1CCCCC1 – activation: inactive: -1.74%

# More compounds follow:

row,Compound,activation
1,Cc1cccc(NC(=O)c2cccs2)n1,inactive: -2.92%
2,NC(=S)n1[nH]c(-c2ccc([N+](=O)[O-])cc2)c(N=Nc2ccc(Cl)cc2)c1=O,inactive: -4.16%
3,Cc1ccc2nc(C)c(C(=O)N/N=C/c3cccs3)n2c1,inactive: -1.53%
4,Cn1c(/C=C/c2ccc([N+](=O)[O-])o2)nc2ccccc2c1=O,inactive: -2.87%
5,NNc1ccc(Cl)nn1,inactive: -2.76%
6,S=c1nc(-c2ccccc2)[nH]c2ccccc12,inactive: -2.34%
7,COc1ccc(NC(=S)NC(=O)c2ccc3c(c2)OCCO3)cc1,inactive: -3.42%
8,Cc1ccc(N(Cc2cc(=O)[nH]c3ccccc23)C(=O)c2ccco2)cc1,inactive: -1.04%
9,O=C(CNC(=O)c1ccccc1F)Nc1ccc2c(c1)OCO2,inactive: -3.21%
10,CCOC(=O)CSc1cccc2cccnc12,inactive: -2.99%
11,COc1ccc2c(C)nc(Nc3nc(C)cc(C)n3)nc2c1,inactive: -2.67%
12,C/C(=N/OC(=O)c1c(-c2c(F)cccc2Cl)noc1C)c1cnccn1,inactive: -2.15%
13,Cc1cc(C)c(NC(=S)NC(NC(=O)c2ccccc2)C(Cl)(Cl)Cl)c(C)c1 (centres undefined),inactive: 0.912%
14,Cc1cc(-c2n[nH]c(=S)n2/N=C/C(Cl)=C/c2ccccc2)n[nH]1,inactive: -3.11%
15,O=C(O)c1ccc(Oc2cc(Oc3ccc(C(=O)O)cc3)cc([N+](=O)[O-])c2)cc1,inactive: -3.75%
16,CC(C)c1ccc(NC(=S)Nc2ccc3cn[nH]c3c2)cc1,inactive: -3.41%
17,OCCN1CCN(c2ncnc3ccc(Br)cc23)CC1,inactive: -4.66%
18,Nc1c(N(CCC2=CCCCC2)C(=O)Cc2ccc(F)cc2)c(=O)[nH]c(=O)n1Cc1ccccc1,inactive: -0.0404%
19,O=C(O)c1ccccc1C(=O)Nc1ccc(-c2csc(-c3ccccc3)n2)cc1,inactive: 0.433%
